Assay results as given in paper PMC4712785.
These are yes or no findings as the source states them, for the method shown. Binding seen in cells or lysates may run through a third protein. Some results given as binding are weak or reduced against the parent protein; the word gives no strength. Where a sequence is shown, tags or fusion partners need not be part of it.

The chains behind the UniProt entries cited, without tags or fusion partners.
UniProt P06780: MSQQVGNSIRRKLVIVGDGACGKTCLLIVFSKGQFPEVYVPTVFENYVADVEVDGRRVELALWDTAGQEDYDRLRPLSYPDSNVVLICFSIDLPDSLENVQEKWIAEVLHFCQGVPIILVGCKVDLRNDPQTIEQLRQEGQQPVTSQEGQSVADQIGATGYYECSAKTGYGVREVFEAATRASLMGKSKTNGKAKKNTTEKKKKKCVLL

Tests used:
Test in all cases: pull-down; GST or GST–α-arrestins from BJ5459 GEV yeast extracts on glutathione-agarose beads, washed, incubated 2 h at 4°C with extract of cells expressing HA-Rho1; 100 mM NaCl, 0.2% Triton X-100, 15 mM EGTA, 50 mM Tris-HCl pH 7.4; immunoblot anti-HA and anti-GST; only the target purified
[1] = biological target: T1, GST–Ldb19 (S. cerevisiae) (UniProt Q12502)
T1 sequence: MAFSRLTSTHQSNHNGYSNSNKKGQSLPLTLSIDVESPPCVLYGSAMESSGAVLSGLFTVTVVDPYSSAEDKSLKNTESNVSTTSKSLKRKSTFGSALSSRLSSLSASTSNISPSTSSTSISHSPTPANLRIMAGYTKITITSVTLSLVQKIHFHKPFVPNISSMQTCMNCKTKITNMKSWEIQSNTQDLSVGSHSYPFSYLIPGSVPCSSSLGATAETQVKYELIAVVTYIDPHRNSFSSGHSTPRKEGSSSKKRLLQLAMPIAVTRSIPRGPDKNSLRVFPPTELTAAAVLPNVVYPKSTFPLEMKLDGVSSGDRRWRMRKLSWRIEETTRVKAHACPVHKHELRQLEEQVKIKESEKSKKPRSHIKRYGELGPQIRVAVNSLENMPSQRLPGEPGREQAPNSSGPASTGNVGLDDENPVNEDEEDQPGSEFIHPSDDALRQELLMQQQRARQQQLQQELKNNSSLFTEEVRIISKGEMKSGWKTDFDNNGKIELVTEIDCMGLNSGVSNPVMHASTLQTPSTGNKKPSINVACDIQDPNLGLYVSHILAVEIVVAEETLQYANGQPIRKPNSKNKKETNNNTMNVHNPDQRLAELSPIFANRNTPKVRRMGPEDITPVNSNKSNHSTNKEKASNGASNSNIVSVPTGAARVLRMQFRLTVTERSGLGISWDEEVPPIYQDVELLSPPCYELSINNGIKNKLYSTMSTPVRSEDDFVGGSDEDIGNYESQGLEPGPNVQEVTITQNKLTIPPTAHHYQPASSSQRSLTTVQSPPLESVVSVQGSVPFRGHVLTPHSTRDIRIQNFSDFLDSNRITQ

GST–Rod1 (S. cerevisiae) = biological target: T2, GST–Rod1 (S. cerevisiae) (UniProt Q02805)
T2 sequence: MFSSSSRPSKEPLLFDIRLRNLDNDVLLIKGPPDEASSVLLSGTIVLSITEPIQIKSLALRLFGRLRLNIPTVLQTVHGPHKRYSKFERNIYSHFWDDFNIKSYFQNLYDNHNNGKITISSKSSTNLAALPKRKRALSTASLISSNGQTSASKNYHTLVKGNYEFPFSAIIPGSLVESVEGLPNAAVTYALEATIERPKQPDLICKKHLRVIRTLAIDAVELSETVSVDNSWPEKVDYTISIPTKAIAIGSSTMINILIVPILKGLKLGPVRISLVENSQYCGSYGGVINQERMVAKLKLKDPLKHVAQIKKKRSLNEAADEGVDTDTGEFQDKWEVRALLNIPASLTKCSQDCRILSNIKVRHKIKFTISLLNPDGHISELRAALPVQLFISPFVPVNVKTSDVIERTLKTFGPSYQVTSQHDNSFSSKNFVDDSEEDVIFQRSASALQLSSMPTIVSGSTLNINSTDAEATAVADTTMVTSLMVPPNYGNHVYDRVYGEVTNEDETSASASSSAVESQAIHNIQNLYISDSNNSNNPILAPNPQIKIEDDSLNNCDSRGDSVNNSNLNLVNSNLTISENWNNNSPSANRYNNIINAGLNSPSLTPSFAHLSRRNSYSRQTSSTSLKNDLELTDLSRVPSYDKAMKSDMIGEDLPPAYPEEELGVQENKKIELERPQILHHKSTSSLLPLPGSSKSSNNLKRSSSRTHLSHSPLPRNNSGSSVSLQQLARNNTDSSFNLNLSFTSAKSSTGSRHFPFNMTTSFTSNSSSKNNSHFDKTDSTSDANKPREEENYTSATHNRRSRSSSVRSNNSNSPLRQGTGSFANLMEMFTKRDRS

GST–Rog3 (S. cerevisiae) = biological target: T3, GST–Rog3 (S. cerevisiae) (UniProt P43602)
T3 sequence: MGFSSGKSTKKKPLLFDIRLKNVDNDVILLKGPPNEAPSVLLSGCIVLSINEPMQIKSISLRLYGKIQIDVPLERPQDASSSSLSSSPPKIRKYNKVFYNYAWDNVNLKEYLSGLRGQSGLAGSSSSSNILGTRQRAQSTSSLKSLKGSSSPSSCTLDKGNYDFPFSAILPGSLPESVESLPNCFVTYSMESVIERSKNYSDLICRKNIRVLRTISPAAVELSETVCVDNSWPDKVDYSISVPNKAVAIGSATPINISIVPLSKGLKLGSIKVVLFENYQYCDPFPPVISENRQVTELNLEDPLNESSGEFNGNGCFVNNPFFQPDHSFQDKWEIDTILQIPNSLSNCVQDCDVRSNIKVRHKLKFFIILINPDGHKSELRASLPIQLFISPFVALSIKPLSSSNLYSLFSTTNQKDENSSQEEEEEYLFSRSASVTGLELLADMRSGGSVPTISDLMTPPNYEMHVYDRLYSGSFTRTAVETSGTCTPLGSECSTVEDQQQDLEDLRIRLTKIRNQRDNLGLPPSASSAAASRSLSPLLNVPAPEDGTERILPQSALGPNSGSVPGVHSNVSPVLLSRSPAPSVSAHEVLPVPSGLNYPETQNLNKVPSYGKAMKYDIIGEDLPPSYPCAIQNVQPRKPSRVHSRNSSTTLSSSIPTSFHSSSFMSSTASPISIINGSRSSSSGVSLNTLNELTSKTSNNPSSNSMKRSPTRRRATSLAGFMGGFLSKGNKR

Measured: binding

HA–Rho1 (from UniProt P06780 1-209)
binds: all assays above
